According to article PMC9735965, “Recovery of Gallium-68 and Zinc from HNO3-Based Solution by Liquid–Liquid Extraction with Arylamino Phosphonates” (Molecules, 2022):
Values joined by “and” are separate entries in the source; they are usually repeats but may differ in a detail not shown here. Equal entries are not always repeated.

How the values were obtained:
[1] = Batch LLE of ^68Ga from 1 M zinc nitrate in 0.01 M nitric acid; details: for ^68Ga EE (%) / distribution ratio Ds = [68Gatot]org/[68Gatot]aq: batch; for gallium-68 extracted (up to): in batch, highest value
[2] = Continuous membrane-based LLE of ^68Ga in flow (extraction and stripping); details: highest value
[3] = 10 mM extractant in CHCl3/heptane 3/1 (v/v), RT
[4] = 10 mM extractant in anisole, 50 °C
[5] = 10 mM extractant in anisole, RT
[6] = 10 mM extractant in heptane, RT
[7] = 10 mM extractant in Bu2O, 50 °C
[8] = 10 mM extractant in heptane/TFT 1:1 (v/v), RT
[9] = 10 mM extractant in heptane, 50 °C

CCCCCCCCOP(=O)(O)C(Nc1ccc(OC)cc1)c1cccs1 (stereo not drawn) [Extractant 3]
^68Ga EE (%) [1, 3]: 20.8 ± 2.0%
distribution ratio Ds = [68Gatot]org/[68Gatot]aq [1, 3]: 7.0

COP(=O)(O)C(Nc1ccc(C(C)(C)C)cc1)c1ccc(C(C)(C)C)cc1 (stereo not drawn) [Extractant 2]
^68Ga EE (%) [1, 4]: 32.9 ± 2.3%
distribution ratio Ds = [68Gatot]org/[68Gatot]aq [1, 4]: 11.0
^68Ga EE (%) [1, 5]: 8.3 ± 3.1%
distribution ratio Ds = [68Gatot]org/[68Gatot]aq [1, 5]: 2.8

CCCCCCCCOP(=O)(O)C(Nc1ccccc1)c1ccccc1 (stereo not drawn) [Extractant 1, reference compound]
EE ([1]; aqueous phase 0.01 M HNO3): 30%
EE ([1]; aqueous phase 0.2 M HNO3): 4.2%
EE ([1]; aqueous phase 1 M HNO3): 1.2%
^68Ga EE (%) [1, 6]: 30.6 ± 2.0%
distribution ratio Ds = [68Gatot]org/[68Gatot]aq [1, 6]: 10.2

COCCOCCOP(=O)(O)C(Nc1cc(C(F)(F)F)cc(C(F)(F)F)c1)c1ccc(C(F)(F)F)cc1 (stereo not drawn) [Extractant 8]
gallium-68 extracted (up to) [2]: up to 80%
^68Ga EE (%) [1, 7]: 80.1 ± 3.0%
distribution ratio Ds = [68Gatot]org/[68Gatot]aq [1, 7]: 26.7
^68Ga EE (%) ([1]; 10 mM extractant in Bu2O, RT): 41.3 ± 2.5%
distribution ratio Ds = [68Gatot]org/[68Gatot]aq ([1]; 10 mM extractant in Bu2O, RT): 13.8
distribution ratio Ds = [68Gatot]org/[68Gatot]aq ([1]; 10 mM extractant in TFT, 50 °C): 29.4
^68Ga EE (%) ([1]; 10 mM extractant in TFT, RT): 60.5 ± 1.9%
distribution ratio Ds = [68Gatot]org/[68Gatot]aq ([1]; 10 mM extractant in TFT, RT): 20.2
gallium-68 extracted (up to) [1]: up to 90%

COP(=O)(O)C(Nc1ccc(C(F)(F)F)cc1)c1cc(C(F)(F)F)cc(C(F)(F)F)c1 (stereo not drawn) [Extractant 6]
^68Ga EE (%) ([1]; 10 mM extractant in Bu2O, RT): 24.8 ± 1.9%
distribution ratio Ds = [68Gatot]org/[68Gatot]aq ([1]; 10 mM extractant in Bu2O, RT): 8.3
^68Ga EE (%) [1, 8]: 49.7 ± 2.6%
distribution ratio Ds = [68Gatot]org/[68Gatot]aq [1, 8]: 16.6

CCCCCCCCOP(=O)(O)C(Nc1cc(C(F)(F)F)cc(C(F)(F)F)c1)c1ccc(C(C)(C)C)cc1 (stereo not drawn) [Extractant 7]
^68Ga EE (%) [1, 9]: 37.7 ± 2.3%
distribution ratio Ds = [68Gatot]org/[68Gatot]aq [1, 9]: 12.6
^68Ga EE (%) [1, 6]: 16.4 ± 2.0%
distribution ratio Ds = [68Gatot]org/[68Gatot]aq [1, 6]: 5.5

CCCCCCCCOP(=O)(O)C(Nc1ccc(OC)cc1)c1ccc(C(F)(F)F)cc1 (stereo not drawn) [Extractant 5]
^68Ga EE (%) ([1]; 10 mM extractant in Bu2O, RT): 34.1 ± 2.0%
distribution ratio Ds = [68Gatot]org/[68Gatot]aq ([1]; 10 mM extractant in Bu2O, RT): 11.4

COCCOCCOP(=O)(O)C(Nc1cc(C(F)(F)F)cc(C(F)(F)F)c1)c1cc(C(F)(F)F)cc(C(F)(F)F)c1 (stereo not drawn) [Extractant 9]
gallium-68 extracted (up to) [2]: up to 80%
distribution ratio Ds = [68Gatot]org/[68Gatot]aq [1, 7]: 29.9
distribution ratio Ds = [68Gatot]org/[68Gatot]aq ([1]; 10 mM extractant in Bu2O, RT): 23.0
^68Ga EE (%) ([1]; 10 mM extractant in TFT, 50 °C): 88.2 ± 2.3% and 89.6 ± 3.5%
^68Ga EE (%) ([1]; 10 mM extractant in TFT, RT): 69.1 ± 3.0%
gallium-68 extracted (up to) [1]: up to 90%

CCCCCCCCOP(=O)(O)C(Nc1ccc(C(F)(F)F)cc1)c1ccc(C(C)(C)C)cc1 (stereo not drawn) [Extractant 4]
^68Ga EE (%) ([1]; 10 mM extractant in Bu2O, RT): 8.1 ± 2.4%
distribution ratio Ds = [68Gatot]org/[68Gatot]aq ([1]; 10 mM extractant in Bu2O, RT): 2.7
EE ([1]; phosphonic acid versus its potassium salt, solvent and temperature not stated): 8%
